Some of the results follow. The main result of the screen is listed elsewhere. These columns were measured beside it and carry no call. Most of these compounds were active or inconclusive in the main read-out, so they are no random draw. Words in brackets tell the shape of the fitted curve; partial curves, single points and poor fits give uncertain potencies.
Experiment: qHTS Assay for Modulators of Lamin A Splicing
Settings: HeLa LMNA splicing GFP/RFP minigene ratio, 48 h
Procedure, shortened: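 Read-out is the ratio of GFP to DsRed2 object intensity, acquired by 488 nm laser-scanning cytometry on HeLa lamin A-EGFP minigene reporter cells. Compound incubation 48 hrs at 37 °C in Opti-MEM with 2% FBS; DMSO 0.5% final.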

[1] = measured here: RFP viability control channel
[2] = measured here: GFP splicing reporter channel

Compound	AC50 [1]	AC50 [2]
COc1ccc(C(=O)NCCc2sc(-c3ccc(Cl)cc3)nc2C)c(OC)c1	0.158 µM [rising, full curve, poor fit]	
COc1ccc(C)cc1NC(=O)NCc1ccc2c(c1)CCN2C(=O)c1ccccc1		0.794 µM [rising, full curve, poor fit]
CC(C)CN(Cc1c(O)ccc2ccccc12)CC(C)C	17.8 µM [falling, partial curve, poor fit]	0.0631 µM [falling, full curve, poor fit]
CC(=O)N(Cc1ccc(F)cc1)C1=C(NCCc2ccccc2)C(=O)c2ccccc2C1=O	5.62 µM [rising, single point]	22.4 µM [falling, single point]
CCCN1C(=O)C(Cc2nc3ccccc3c(=O)n2-c2ccccc2)c2cc(C)ccc21 (stereo not drawn)	22.4 µM [rising, single point]	15.8 µM [rising, single point]
COC(=O)c1ccccc1CCC(C)=O	35.5 µM [falling, partial curve, poor fit]	
COc1cc(/C=C/C(=O)NC(C)CCc2ccccc2)cc(OC)c1OC (stereo not drawn)	14.1 µM [rising, single point]	
CCOC(=O)N1c2ccccc2C=CC1OCC (stereo not drawn)	1.41 µM [rising, single point]	
O=C(NCCOCc1ccc(Cl)cc1)c1ncn[nH]1	0.0224 µM [rising, full curve]	0.501 µM [rising, full curve, poor fit]
COc1ccc(CNc2ncncc2-c2ccccc2C(F)(F)F)c(OC)c1		0.282 µM [falling, full curve, poor fit]
COc1cc(/C=N/n2nnnc2N)ccc1OCc1c(C)no[n+]1[O-]	0.178 µM [rising, full curve, poor fit]	15.8 µM [rising, partial curve]
COc1cccc(Cn2c(=O)c(CCc3ccccc3)nc3cnc(N4CCN(C)CC4)nc32)c1	22.4 µM [falling, single point]	17.8 µM [falling, partial curve]
O=C(/C=C/c1ccccc1)Nc1cccc(S(=O)(=O)Nc2ccccc2F)c1	31.6 µM [rising, single point]	28.2 µM [rising, single point]
N#Cc1nc(Cc2ccccc2)oc1NCc1ccccc1Cl	8.91 µM [rising, partial curve]	
COc1cc(OC)c(OC)cc1/C=C1\CCC(C2CCCC2)C1=O (stereo not drawn)	35.5 µM [rising, single point]	
Cc1cccc(C(=O)NCCc2n[nH]c(=S)n2C)c1		0.00447 µM [falling, full curve]
O=C(O)/C=C/C(=O)Nc1ccc(OC(F)(F)Cl)cc1		0.00355 µM [rising, full curve]

Compound	AC50 [1]	AC50 [2]
NCC[C@H](O)C(=O)N[C@@H]1C[C@H](N)[C@@H](O[C@H]2O[C@H](CN)[C@@H](O)[C@H](O)[C@H]2O)[C@H](O)[C@H]1O[C@H]1O[C@H](CO)[C@@H](O)[C@H](N)[C@H]1O	0.158 µM [falling, full curve, poor fit]	0.002 µM [falling, full curve, poor fit]
CCNS(=O)(=O)c1cccc(C(=O)c2c(C)cc3ccccn23)c1	35.5 µM [rising, single point]	31.6 µM [rising, single point]
Cn1c(=O)[nH]c(=O)c2c1nc(N1CCCCC1)n2CCCSc1nc2ccccc2s1	31.6 µM [rising, single point]	
N#Cc1cccc(-c2ccc3ncnc(NCCN4CCOCC4)c3c2)c1		11.2 µM [falling, partial curve]
CC(C)CC(COCc1cccc(Cl)c1)N1CCN(C(=O)c2ccc(C(F)(F)F)cc2)CCC1=O (stereo not drawn)	31.6 µM [rising, single point]	14.1 µM [rising, single point]
Clc1ccc(C2=NCCN2)cc1	0.0316 µM [falling, full curve, poor fit]	0.0224 µM [falling, full curve, poor fit]
CCN(CC)C(=O)Cn1c(=O)nc(-c2ccccc2F)c2cc(Cl)ccc21	5.62 µM [rising, single point]	
Cc1ccc(Nc2c(N)c(=O)oc3ccccc23)cc1	14.1 µM [rising, partial curve]	
Cc1cc(F)ccc1S(=O)(=O)Nc1ccc2c(c1)CCCN2C(=O)c1cccs1		12.6 µM [falling, partial curve, poor fit]
COc1cccc(C2CC(c3cccs3)=NN2C(=O)CSc2nc3ccccc3s2)c1OC (stereo not drawn)	11.2 µM [rising, single point]	
O=C(CSc1nnc(-c2ccccc2)n1Cc1ccccc1)N1CCCC1	0.794 µM [falling, partial curve, poor fit]	
O=C(COc1ccc(F)cc1)OCc1cc(=O)n2nc(C3CCCCC3)sc2n1	0.01 µM [falling, full curve, poor fit]	0.01 µM [falling, full curve, poor fit]
Fc1ccc(NC(=S)NCCc2ccccn2)cc1		22.4 µM [falling, partial curve, poor fit]
O=C(Nc1ccccc1O)c1cc(S(=O)(=O)N2CCOCC2)c(Cl)cc1Cl	11.2 µM [rising, partial curve]	1.78 µM [rising, full curve, poor fit]
O=C(NCCS(=O)(=O)N1CCN(c2ccccc2)CC1)C1CC(=O)N(c2ccc(F)cc2)C1 (stereo not drawn)		0.0708 µM [rising, full curve]
COc1ccc(C2CC(c3cccs3)=NN2C(=O)CN2CCCCC2)cc1 (stereo not drawn)	1.78 µM [rising, full curve]	3.16 µM [rising, single point]
Cc1cc(C)nc(Sc2nc(C)nc3c2oc2ccccc23)n1		11.2 µM [falling, partial curve]

Gathered by group, those above with a cyano group.
Compound	AC50 [1]	AC50 [2]
N#Cc1nc(Cc2ccccc2)oc1NCc1ccccc1Cl	8.91 µM [rising, partial curve]	
N#Cc1cccc(-c2ccc3ncnc(NCCN4CCOCC4)c3c2)c1		11.2 µM [falling, partial curve]
